The assay has as its target Zinc Finger Homeobox 3 (ZFHX3), endogenous (human (endogenous in SH-SY5Y and NSCs)) (UniProt Q15911). Put plainly: affinity purification with mass spectrometry.

Protein sequences, listed by entry. Tags and fused reporters are not part of them.
UniProt Q15911: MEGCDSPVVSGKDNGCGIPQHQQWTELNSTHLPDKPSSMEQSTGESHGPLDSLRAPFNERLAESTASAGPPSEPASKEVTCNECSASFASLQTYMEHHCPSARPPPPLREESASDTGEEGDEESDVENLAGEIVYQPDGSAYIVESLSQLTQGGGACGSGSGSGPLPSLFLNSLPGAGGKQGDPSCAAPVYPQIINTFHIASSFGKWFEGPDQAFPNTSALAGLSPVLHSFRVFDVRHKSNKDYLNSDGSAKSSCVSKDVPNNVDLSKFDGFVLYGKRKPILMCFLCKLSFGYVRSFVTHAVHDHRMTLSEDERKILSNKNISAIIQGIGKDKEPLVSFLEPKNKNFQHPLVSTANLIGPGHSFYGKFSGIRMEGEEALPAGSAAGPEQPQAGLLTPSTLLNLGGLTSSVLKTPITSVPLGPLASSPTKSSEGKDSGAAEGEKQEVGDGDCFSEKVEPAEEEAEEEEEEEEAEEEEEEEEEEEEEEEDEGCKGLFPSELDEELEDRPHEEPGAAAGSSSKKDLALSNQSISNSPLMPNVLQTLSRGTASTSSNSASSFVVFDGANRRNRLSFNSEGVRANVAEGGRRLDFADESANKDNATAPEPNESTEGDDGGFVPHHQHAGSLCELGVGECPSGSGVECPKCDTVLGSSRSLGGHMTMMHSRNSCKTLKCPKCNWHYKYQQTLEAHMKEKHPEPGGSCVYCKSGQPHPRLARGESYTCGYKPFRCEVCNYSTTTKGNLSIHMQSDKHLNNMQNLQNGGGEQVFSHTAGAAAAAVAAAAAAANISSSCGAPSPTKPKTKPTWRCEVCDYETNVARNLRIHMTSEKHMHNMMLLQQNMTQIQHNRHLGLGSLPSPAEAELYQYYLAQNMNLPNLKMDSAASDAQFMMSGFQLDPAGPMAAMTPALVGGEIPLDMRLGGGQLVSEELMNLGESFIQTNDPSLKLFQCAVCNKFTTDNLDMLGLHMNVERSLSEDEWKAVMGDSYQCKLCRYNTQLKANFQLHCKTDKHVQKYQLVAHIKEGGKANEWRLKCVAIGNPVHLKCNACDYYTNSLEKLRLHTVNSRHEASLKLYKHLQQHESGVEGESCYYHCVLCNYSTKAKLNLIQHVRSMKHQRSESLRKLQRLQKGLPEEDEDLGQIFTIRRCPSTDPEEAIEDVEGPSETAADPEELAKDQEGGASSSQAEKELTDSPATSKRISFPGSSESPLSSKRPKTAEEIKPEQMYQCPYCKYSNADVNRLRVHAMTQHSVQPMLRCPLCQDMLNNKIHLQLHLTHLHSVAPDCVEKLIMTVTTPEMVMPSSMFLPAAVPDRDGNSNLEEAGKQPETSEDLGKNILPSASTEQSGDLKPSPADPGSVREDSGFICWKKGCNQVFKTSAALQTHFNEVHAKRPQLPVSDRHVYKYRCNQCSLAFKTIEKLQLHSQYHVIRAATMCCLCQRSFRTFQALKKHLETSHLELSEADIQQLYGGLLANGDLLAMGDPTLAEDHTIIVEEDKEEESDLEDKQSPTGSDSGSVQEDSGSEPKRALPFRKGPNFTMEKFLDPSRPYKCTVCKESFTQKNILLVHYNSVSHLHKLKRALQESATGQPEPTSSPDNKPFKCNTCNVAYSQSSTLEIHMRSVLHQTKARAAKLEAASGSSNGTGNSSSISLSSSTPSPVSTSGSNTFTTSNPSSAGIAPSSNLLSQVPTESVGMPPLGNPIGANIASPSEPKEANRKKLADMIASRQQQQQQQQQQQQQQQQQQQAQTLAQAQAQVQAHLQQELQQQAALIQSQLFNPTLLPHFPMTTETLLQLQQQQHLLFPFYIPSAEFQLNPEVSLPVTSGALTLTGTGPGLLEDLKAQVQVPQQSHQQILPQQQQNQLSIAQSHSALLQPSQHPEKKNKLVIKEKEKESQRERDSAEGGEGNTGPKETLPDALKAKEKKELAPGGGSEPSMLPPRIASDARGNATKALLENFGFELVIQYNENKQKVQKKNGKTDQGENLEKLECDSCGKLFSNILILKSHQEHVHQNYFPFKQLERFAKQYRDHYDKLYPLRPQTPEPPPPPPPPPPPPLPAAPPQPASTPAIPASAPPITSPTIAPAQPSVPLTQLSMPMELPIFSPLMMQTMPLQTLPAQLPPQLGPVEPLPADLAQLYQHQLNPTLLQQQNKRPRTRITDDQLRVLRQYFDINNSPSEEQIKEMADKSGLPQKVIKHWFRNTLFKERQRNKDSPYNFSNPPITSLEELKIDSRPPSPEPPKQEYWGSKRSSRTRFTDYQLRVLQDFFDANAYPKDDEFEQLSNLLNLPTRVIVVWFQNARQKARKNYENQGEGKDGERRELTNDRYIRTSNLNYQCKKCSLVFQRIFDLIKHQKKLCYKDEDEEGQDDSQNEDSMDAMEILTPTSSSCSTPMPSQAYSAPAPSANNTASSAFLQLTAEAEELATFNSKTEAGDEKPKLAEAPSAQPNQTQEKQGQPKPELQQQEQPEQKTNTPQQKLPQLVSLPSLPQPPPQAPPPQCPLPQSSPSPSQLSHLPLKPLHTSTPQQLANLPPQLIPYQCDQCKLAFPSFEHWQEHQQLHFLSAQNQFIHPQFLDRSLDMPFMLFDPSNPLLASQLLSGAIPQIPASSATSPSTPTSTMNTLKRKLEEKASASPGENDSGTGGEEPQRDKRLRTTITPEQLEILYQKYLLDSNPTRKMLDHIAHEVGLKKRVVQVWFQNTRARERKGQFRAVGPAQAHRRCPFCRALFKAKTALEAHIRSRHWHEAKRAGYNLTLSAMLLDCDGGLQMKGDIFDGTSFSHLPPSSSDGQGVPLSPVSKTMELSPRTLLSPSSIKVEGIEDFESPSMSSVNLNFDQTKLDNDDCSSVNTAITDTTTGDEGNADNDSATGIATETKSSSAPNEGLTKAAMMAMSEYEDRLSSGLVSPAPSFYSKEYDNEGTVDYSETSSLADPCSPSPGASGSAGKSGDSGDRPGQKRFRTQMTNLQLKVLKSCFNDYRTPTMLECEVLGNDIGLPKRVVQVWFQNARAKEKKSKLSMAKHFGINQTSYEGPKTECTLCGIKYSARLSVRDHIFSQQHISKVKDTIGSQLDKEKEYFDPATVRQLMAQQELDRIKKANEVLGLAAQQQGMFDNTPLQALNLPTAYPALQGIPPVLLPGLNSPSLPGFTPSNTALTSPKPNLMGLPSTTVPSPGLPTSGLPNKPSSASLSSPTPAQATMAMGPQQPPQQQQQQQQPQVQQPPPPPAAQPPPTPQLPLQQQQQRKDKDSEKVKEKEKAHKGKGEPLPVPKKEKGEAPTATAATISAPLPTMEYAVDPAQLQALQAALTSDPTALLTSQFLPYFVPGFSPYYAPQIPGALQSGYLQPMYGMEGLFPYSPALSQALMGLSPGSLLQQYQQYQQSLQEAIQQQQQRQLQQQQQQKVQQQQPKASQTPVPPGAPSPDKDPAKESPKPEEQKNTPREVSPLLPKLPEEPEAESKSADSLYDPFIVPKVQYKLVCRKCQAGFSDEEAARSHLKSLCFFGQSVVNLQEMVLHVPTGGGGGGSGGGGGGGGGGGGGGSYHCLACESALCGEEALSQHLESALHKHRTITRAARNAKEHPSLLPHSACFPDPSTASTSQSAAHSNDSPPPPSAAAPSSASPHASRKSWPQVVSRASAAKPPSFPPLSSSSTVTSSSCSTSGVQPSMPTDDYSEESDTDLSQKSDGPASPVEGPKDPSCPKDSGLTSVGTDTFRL
UniProt Q12824: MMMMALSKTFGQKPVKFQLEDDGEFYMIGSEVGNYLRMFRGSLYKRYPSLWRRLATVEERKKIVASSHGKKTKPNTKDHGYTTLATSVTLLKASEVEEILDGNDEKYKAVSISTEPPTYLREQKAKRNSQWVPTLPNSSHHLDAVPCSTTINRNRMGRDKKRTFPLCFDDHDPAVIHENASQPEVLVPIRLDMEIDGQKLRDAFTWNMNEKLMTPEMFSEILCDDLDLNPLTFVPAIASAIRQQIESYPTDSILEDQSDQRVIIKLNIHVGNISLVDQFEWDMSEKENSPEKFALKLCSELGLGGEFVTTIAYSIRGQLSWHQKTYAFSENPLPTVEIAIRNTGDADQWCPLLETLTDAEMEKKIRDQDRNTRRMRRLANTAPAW

No constants are given. Whether binding was seen depends on the method and setting. In cells and extracts the contact can be indirect. A yes stands for co-enrichment or nearness to the bait. Other partners may have been found.

As to “SMARCB1 (subunit of the BAF complex), endogenous (from UniProt Q12824 1-385)”, the binding result is given as “binds”.

B1: CPSF2 (subunit of CP complex), endogenous (protein, UniProt Q9P2I0 1-782)
chain: MTSIIKLTTLSGVQEESALCYLLQVDEFRFLLDCGWDEHFSMDIIDSLRKHVHQIDAVLLSHPDPLHLGALPYAVGKLGLNCAIYATIPVYKMGQMFMYDLYQSRHNTEDFTLFTLDDVDAAFDKIQQLKFSQIVNLKGKGHGLSITPLPAGHMIGGTIWKIVKDGEEEIVYAVDFNHKREIHLNGCSLEMLSRPSLLITDSFNATYVQPRRKQRDEQLLTNVLETLRGDGNVLIAVDTAGRVLELAQLLDQIWRTKDAGLGVYSLALLNNVSYNVVEFSKSQVEWMSDKLMRCFEDKRNNPFQFRHLSLCHGLSDLARVPSPKVVLASQPDLECGFSRDLFIQWCQDPKNSIILTYRTTPGTLARFLIDNPSEKITEIELRKRVKLEGKELEEYLEKEKLKKEAAKKLEQSKEADIDSSDESDIEEDIDQPSAHKTKHDLMMKGEGSRKGSFFKQAKKSYPMFPAPEERIKWDEYGEIIKPEDFLVPELQATEEEKSKLESGLTNGDEPMDQDLSDVPTKCISTTESIEIKARVTYIDYEGRSDGDSIKKIINQMKPRQLIIVHGPPEASQDLAECCRAFGGKDIKVYMPKLHETVDATSETHIYQVRLKDSLVSSLQFCKAKDAELAWIDGVLDMRVSKVDTGVILEEGELKDDGEDSEMQVEAPSDSSVIAQQKAMKSLFGDDEKETGEESEIIPTLEPLPPHEVPGHQSVFMNEPRLSDFKQVLLREGIQAEFVGGVLVCNNQVAVRRTETGRIGLEGCLCQDFYRIRDLLYEQYAIV
Consider B1, for which the binding result is recorded as “binds”.

The record behind these values is paper doi:10.1101/2023.05.22.23289895.
